Data set [1] concerns parental CHO-K1 cells. Put plainly: Cellular NMR (T2), parental CHO-K1 cells. The class given is binding. Particulars: trials.
Data set [2] in a line: general procedure: peptide synthesis; CTC resin; HATU/DIPEA (head-to-tail cyclisation). The note with it: whole synthesis.

The results in this text go back to publication PMC8187357 (Communications Biology, 2021).

Values joined by “and” are separate entries in the source; they are usually repeats but may differ in a detail not shown here. Equal entries are not always repeated.

For `C[C@@H](O)[C@H](NC(=O)N[C@@H](CC(N)=O)c1nc([C@@H](N)CO)no1)C(=O)O` [CA-170], the T2 in data set [1] (CA-170 5.0 µM) is 70.18 mS and 63.50 mS; in data set [1] (CA-170 7.5 µM), 70.48 mS; in data set [1] (CA-170 10.0 µM) it was 69.86 mS; in data set [1] (CA-170 20.0 µM), 65.57 mS and 57.14 mS; in data set [1] (CA-170 40.0 µM), 72.39 mS and 60.00 mS and 66.66 mS.
On to “HELM PEPTIDE1{E.S.F.S.N.T.S}$PEPTIDE1,PEPTIDE1,1:R1-7:R2$$$V2.0 (SMILES C[C@@H](O)[C@@H]1NC(=O)[C@H](CC(N)=O)NC(=O)[C@H](CO)NC(=O)[C@H](Cc2ccccc2)NC(=O)[C@H](CO)NC(=O)[C@H](CCC(=O)O)NC(=O)[C@H](CO)NC1=O)”, for which the “final HPLC purity” value in data set [2] was 97%.
